Results from patent US20200172868A1.
No constants are given. Whether binding was seen depends on the method and setting. Some results given as binding are weak or reduced against the parent protein; the word gives no strength.

By UniProt entry, the sequences of proteins in these tests, tags left out. Residues count along the entry.
UniProt Q07011, residues 24-186: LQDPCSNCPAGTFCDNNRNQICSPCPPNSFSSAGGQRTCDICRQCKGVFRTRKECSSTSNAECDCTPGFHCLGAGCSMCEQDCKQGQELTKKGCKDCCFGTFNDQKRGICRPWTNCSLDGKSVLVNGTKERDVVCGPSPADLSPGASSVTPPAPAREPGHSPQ
UniProt P41273, residues 50-254: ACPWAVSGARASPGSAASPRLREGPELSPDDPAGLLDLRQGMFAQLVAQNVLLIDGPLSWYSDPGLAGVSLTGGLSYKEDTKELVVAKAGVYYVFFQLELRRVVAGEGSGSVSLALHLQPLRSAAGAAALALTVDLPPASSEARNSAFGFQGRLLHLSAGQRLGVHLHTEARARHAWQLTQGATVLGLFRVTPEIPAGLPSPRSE

Target: recombinant 41-BB (UniProt Q07011)
Assay: flow cytometry; recombinant 41-BB on erythroid cells displaying 41-BB-L

- binding: binds
Substance: 41-BB-L expressed on enucleated erythroid cells (from UniProt P41273 50-254) (ligand)
